Experimental findings from article doi:10.1101/2020.12.14.422803 are described below.

By UniProt entry, the sequences of proteins in these tests, tags left out.
UniProt P48292: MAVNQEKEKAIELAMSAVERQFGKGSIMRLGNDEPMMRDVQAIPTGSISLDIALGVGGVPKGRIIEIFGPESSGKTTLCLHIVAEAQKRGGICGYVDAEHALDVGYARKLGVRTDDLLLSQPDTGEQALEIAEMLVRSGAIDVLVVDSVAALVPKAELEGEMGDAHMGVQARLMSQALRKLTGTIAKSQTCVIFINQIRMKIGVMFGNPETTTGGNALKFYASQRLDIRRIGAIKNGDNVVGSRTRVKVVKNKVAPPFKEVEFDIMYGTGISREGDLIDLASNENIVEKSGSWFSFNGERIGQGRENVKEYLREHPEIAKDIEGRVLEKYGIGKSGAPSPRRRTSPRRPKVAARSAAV

The experiment concerns the target RecA2 (M. xanthus), yeast two-hybrid fusion (Myxococcus xanthus DK1622) (UniProt P48292). Kind of experiment: two-hybrid.

These are yes or no findings as the source states them, for the method shown. Some entries that bind do so weakly or less than the wild type. Where a sequence is shown, tags or fusion partners need not be part of it.

B1: RecA1 (M. xanthus), yeast two-hybrid fusion (protein, UniProt P48291 1-342)
chain: MSKLAEKLKAVAAAVASIEKQFGRGSVMTLGGEAREQKVAVIPSGSVGVDRALGVGGYPRGRVVEVFGNESSGKTTLTLHAIAQVQAAGGVAAFIDAEHALDVSYARKLGVRVEELLVSQPDTGEQALEITEHLVRSGAVDLIVVDSVAALVPRAEIEGEMGDAHMGVQARLMSQALRKLTGAVSRSGTCIIFINQIRMKIGVMFGNPETTTGGNALKFYASVRMEIRRTGNIKDGDAVVGSKARVKVVKNKVAPPFQEAEFDLMYGSGIHRVGEVLDLGVATGLIEKSGSYFSLRGERIGQGRERAAEWLREHPDVLEALGKEITGTSALPSSPAPVEVAA
Turning to B1, the binding result is given as “binds”.
